The other results are listed elsewhere or left out.
How the values were obtained:
Assay in all cases: glycan array binding signal (z-score within array); higher = stronger binding
Conditions in all cases: glycan notation: IUPAC condensed, linker removed
[1] = target: Neu5Ac(a2-6)Gal(b1-4)GlcNAc(b1-2)Man(a1-3)[Man(a1-6)]Man(b1-4)GlcNAc(b1-4)GlcNAc
How it was run: (§1)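 The Consortium for Functional Glycomics database supplied 3228 glycan arrays, of which those lacking an available protein sequence were dropped. The binding signal, a within-array Z-score, was averaged across arrays of the same protein sequence and across linkers. Negative scores can be read as non-binding.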

[2] = target: Neu5Ac(a2-6)Gal(b1-4)GlcNAc(b1-2)Man(a1-3)[Neu5Ac(a2-3)Gal(b1-4)GlcNAc(b1-2)Man(a1-6)]Man(b1-4)GlcNAc(b1-4)GlcNAc
How it was run: as §1

[3] = target: Neu5Ac(a2-6)Gal(b1-4)GlcNAc(b1-2)Man(a1-3)[Neu5Ac(a2-6)Gal(b1-4)GlcNAc(b1-2)Man(a1-6)]Man(b1-4)GlcNAc(b1-4)GlcNAc
How it was run: as §1

[4] = target: Neu5Ac(a2-6)Gal(b1-4)GlcNAc(b1-2)Man(a1-3)[Neu5Ac(a2-6)Gal(b1-4)GlcNAc(b1-2)Man(a1-6)]Man(b1-4)GlcNAc(b1-4)[Fuc(a1-6)]GlcNAc
How it was run: as §1

[5] = target: Neu5Ac(a2-6)Gal(b1-4)GlcNAc(b1-2)Man(a1-6)Man(b1-4)GlcNAc(b1-4)GlcNAc
How it was run: as §1

[6] = target: Neu5Ac(a2-6)Gal(b1-4)GlcNAc(b1-2)Man(a1-6)[Gal(b1-4)GlcNAc(b1-2)Man(a1-3)]Man(b1-4)GlcNAc(b1-4)GlcNAc
How it was run: as §1

[7] = target: Neu5Ac(a2-6)Gal(b1-4)GlcNAc(b1-2)Man(a1-6)[GlcNAc(b1-2)Man(a1-3)]Man(b1-4)GlcNAc(b1-4)GlcNAc
How it was run: as §1

[8] = target: Neu5Ac(a2-6)Gal(b1-4)GlcNAc(b1-2)Man(a1-6)[Man(a1-3)]Man(b1-4)GlcNAc(b1-4)GlcNAc
How it was run: as §1

[9] = target: Neu5Ac(a2-6)Gal(b1-4)GlcNAc(b1-2)[Neu5Ac(a2-6)Gal(b1-4)GlcNAc(b1-4)]Man(a1-3)[GlcNAc(b1-4)][Neu5Ac(a2-6)Gal(b1-4)GlcNAc(b1-2)[Neu5Ac(a2-6)Gal(b1-4)GlcNAc(b1-6)]Man(a1-6)]Man(b1-4)GlcNAc(b1-4)GlcNAc
How it was run: as §1

[10] = target: Neu5Ac(a2-6)Gal(b1-4)GlcNAc(b1-2)[Neu5Ac(a2-6)Gal(b1-4)GlcNAc(b1-4)]Man(a1-3)[GlcNAc(b1-4)][Neu5Ac(a2-6)Gal(b1-4)GlcNAc(b1-4)Man(a1-6)]Man(b1-4)GlcNAc(b1-4)GlcNAc
How it was run: as §1

[11] = target: Neu5Ac(a2-6)Gal(b1-4)GlcNAc(b1-2)[Neu5Ac(a2-6)Gal(b1-4)GlcNAc(b1-6)]Man(a1-6)[Neu5Ac(a2-6)Gal(b1-4)GlcNAc(b1-2)Man(a1-3)][GlcNAc(b1-4)]Man(b1-4)GlcNAc(b1-4)GlcNAc
How it was run: as §1

[12] = target: Neu5Ac(a2-6)Gal(b1-4)GlcNAc(b1-3)Gal(b1-3)GlcNAc
How it was run: as §1

[13] = target: Neu5Ac(a2-6)Gal(b1-4)GlcNAc(b1-3)Gal(b1-4)GlcNAc
How it was run: as §1

[14] = target: Neu5Ac(a2-6)Gal(b1-4)GlcNAc(b1-3)Gal(b1-4)GlcNAc(b1-2)Man(a1-3)[Neu5Ac(a2-6)Gal(b1-4)GlcNAc(b1-3)Gal(b1-4)GlcNAc(b1-2)Man(a1-6)]GalNAc
How it was run: as §1

[15] = target: Neu5Ac(a2-6)Gal(b1-4)GlcNAc(b1-3)Gal(b1-4)GlcNAc(b1-3)Gal(b1-4)GlcNAc
How it was run: as §1

[16] = target: Neu5Ac(a2-6)Gal(b1-4)GlcNAc(b1-3)Gal(b1-4)GlcNAc(b1-3)Gal(b1-4)GlcNAc(b1-2)Man(a1-3)[Neu5Ac(a2-6)Gal(b1-4)GlcNAc(b1-3)Gal(b1-4)GlcNAc(b1-3)Gal(b1-4)GlcNAc(b1-2)Man(a1-6)]GalNAc
How it was run: as §1

[17] = target: Neu5Ac(a2-6)Gal(b1-4)GlcNAc(b1-3)Gal(b1-4)GlcNAc(b1-3)GalNAc
How it was run: as §1

[18] = target: Neu5Ac(a2-6)Gal(b1-4)GlcNAc(b1-3)Gal(b1-4)GlcNAc(b1-3)[Neu5Ac(a2-6)Gal(b1-4)GlcNAc(b1-3)Gal(b1-4)GlcNAc(b1-6)]GalNAc
How it was run: as §1

[19] = target: Neu5Ac(a2-6)Gal(b1-4)GlcNAc(b1-3)Gal(b1-4)GlcNAc(b1-6)[Gal(b1-3)]GalNAc
How it was run: as §1

[20] = target: Neu5Ac(a2-6)Gal(b1-4)GlcNAc(b1-3)Gal(b1-4)[Fuc(a1-3)]GlcNAc(b1-3)Gal(b1-4)[Fuc(a1-3)]GlcNAc
How it was run: as §1

[21] = target: Neu5Ac(a2-6)Gal(b1-4)GlcNAc(b1-3)GalNAc
How it was run: as §1

[22] = target: Neu5Ac(a2-6)Gal(b1-4)GlcNAc(b1-3)[Neu5Ac(a2-6)Gal(b1-4)GlcNAc(b1-6)]GalNAc
How it was run: as §1

[23] = target: Neu5Ac(a2-6)Gal(b1-4)GlcNAc(b1-6)GalNAc
How it was run: as §1

[24] = target: Neu5Ac(a2-6)Gal(b1-4)GlcNAc(b1-6)[Gal(b1-3)GlcNAc(b1-3)]Gal(b1-4)Glc
How it was run: as §1

[25] = target: Neu5Ac(a2-6)Gal(b1-4)GlcNAc(b1-6)[Gal(b1-3)]GalNAc
How it was run: as §1

[26] = target: Neu5Ac(a2-6)Gal(b1-4)GlcNAc6S
How it was run: as §1

Neu5Ac(a2-6)GalNAc = target: Neu5Ac(a2-6)GalNAc
How it was run: as §1

[27] = target: Neu5Ac(a2-6)GalNAc(b1-4)GlcNAc
How it was run: as §1

[28] = target: Neu5Ac(a2-6)GalNAc(b1-4)GlcNAc6S
How it was run: as §1

[29] = target: Neu5Ac(a2-6)GlcNAc(b1-4)GlcNAc
How it was run: as §1

B1: Protein L(A-C2) (Finegoldia magna), Q51912 (protein)
chain: ADEPIDLEKLEEKRDKENVGNLPKFDNEVKDGSENPMAKYPDFDDEASTRFETENNEFEEKKVVSDNFFDQSEHPFVENKEETPETPETDSEEEVTIKANLIFANGSTQTAEFKGTFEKATSEAYAYADTLKKDNGEYTVDVADKGYTLNIKFAGKEKTPEEPKEEVTIKANLIYADGKTQTAEFKGTFEEATAEAYRYADALKKDNGEYTVDVADKGYTLNIKFAGKEKTPEEPKEEVTIKANLIYADGKTQTAEFKGTFEEATAEAYRYADLLAKENGKYTVDVADKGYTLNIKFAGKEKTPEEPKEEVTIKANLIYADGKTQTAEFKGTFAEATAEAYRYADLLAKENGKYTADLEDGGYTINIRFAGKKVDEKPEEKEQVTIKENIYFEDGTVQTATFKGTFAEATAEAYRYADLLSKEHGKYTADLEDGGYTINIRFAGKEEPEETPEKPEVQDGYASYEEAEAAAKEALKNDDVNKSYTIRQGADGRYYYVLSPVEAEEEKPEAQNGYATYEEAEAAAKKALENDPINKSYSIRQGADGRYYYVLSPVEAE
In the case of B1, the “glycan array binding signal (z-score)” value [1] is reported as -1.23, the “glycan array binding signal (z-score)” value [2] is reported as -0.24 and the “glycan array binding signal (z-score)” value [3] is reported as -0.037. For the same binder, the “glycan array binding signal (z-score)” value [4] was 0.419, the “glycan array binding signal (z-score)” value [5] was -0.51 and the “glycan array binding signal (z-score)” value [6] was -0.288. For the same binder, the “glycan array binding signal (z-score)” value [7] was -0.74, the “glycan array binding signal (z-score)” value [8] was 0.298 and the “glycan array binding signal (z-score)” value [9] was 0.198. The “glycan array binding signal (z-score)” value [10] was -0.222, the “glycan array binding signal (z-score)” value [11] was -0.594 and the “glycan array binding signal (z-score)” value [12] was -0.752. For the same binder, the “glycan array binding signal (z-score)” value [13] was 0.159, the “glycan array binding signal (z-score)” value [14] was 1.16 and the “glycan array binding signal (z-score)” value [15] was -0.292. For the same binder, the “glycan array binding signal (z-score)” value [16] was 1.97, the “glycan array binding signal (z-score)” value [17] was -0.032 and the “glycan array binding signal (z-score)” value [18] was 3.89. The “glycan array binding signal (z-score)” value [19] was 0.761, the “glycan array binding signal (z-score)” value [20] was 0.819 and the “glycan array binding signal (z-score)” value [21] was 0.898. The “glycan array binding signal (z-score)” value [22] was -0.107, the “glycan array binding signal (z-score)” value [23] was 1.66 and the “glycan array binding signal (z-score)” value [24] was -0.414. The “glycan array binding signal (z-score)” value [25] was 0.12, the “glycan array binding signal (z-score)” value [26] was -0.725 and the “glycan array binding signal (z-score)” value (Neu5Ac(a2-6)GalNAc) was -0.512. For the same binder, the “glycan array binding signal (z-score)” value [27] was -0.287, the “glycan array binding signal (z-score)” value [28] was -0.457 and the “glycan array binding signal (z-score)” value [29] was -0.694.
